Laboratory results taken from PMC2680019.
No constants are given. Whether binding was seen depends on the method and setting. In cells and extracts the contact can be indirect. Some entries that bind do so weakly or less than the wild type. Where a sequence is shown, tags or fusion partners need not be part of it.

T1: Myc-tagged Tensin2 1-1409 (WT, wild-type) (UniProt Q63HR2)
T1 sequence: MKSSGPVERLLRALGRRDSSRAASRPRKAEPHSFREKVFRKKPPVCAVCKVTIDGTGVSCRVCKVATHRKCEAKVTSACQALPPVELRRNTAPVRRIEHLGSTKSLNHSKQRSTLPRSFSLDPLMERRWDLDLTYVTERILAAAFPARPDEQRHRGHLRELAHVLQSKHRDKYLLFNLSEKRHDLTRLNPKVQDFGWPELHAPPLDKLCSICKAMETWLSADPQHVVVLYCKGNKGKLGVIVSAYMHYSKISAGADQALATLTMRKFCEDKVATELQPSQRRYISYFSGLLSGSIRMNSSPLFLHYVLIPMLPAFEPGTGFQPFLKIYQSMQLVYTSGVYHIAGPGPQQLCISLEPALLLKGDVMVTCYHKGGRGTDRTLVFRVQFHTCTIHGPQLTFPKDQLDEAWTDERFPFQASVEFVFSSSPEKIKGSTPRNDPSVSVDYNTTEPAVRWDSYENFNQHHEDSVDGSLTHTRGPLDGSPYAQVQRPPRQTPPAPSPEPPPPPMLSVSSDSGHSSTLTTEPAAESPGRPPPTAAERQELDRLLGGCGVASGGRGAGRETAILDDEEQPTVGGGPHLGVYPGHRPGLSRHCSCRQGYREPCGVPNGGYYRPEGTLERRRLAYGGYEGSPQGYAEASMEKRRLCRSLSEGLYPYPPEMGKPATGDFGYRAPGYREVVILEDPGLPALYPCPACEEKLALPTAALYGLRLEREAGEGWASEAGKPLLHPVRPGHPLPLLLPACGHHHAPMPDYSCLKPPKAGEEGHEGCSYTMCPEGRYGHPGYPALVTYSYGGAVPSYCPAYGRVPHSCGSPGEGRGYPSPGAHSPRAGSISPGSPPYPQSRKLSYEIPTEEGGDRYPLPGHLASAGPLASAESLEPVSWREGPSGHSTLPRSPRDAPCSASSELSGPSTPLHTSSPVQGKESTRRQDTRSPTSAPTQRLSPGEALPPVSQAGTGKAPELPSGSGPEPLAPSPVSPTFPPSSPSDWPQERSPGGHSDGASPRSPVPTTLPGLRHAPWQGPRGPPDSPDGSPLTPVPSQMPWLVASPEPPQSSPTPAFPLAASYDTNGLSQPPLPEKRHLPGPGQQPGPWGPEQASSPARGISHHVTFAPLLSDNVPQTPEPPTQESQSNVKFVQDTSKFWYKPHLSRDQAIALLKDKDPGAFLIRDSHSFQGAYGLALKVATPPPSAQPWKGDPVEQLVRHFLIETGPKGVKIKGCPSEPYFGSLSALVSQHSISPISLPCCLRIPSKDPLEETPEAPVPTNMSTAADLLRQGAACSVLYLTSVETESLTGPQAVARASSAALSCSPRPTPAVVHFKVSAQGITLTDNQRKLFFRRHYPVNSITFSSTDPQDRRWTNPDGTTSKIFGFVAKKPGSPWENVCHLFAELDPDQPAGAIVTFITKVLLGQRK


Target: T1, Myc-tagged Tensin2 1-1409 (WT, wild-type)
Assay: co-IP; HEK293T co-transfected with Myc-tagged tensin and FLAG-tagged DLC1 (or GFP-tagged DLC2); cleared lysate in NET-N buffer (25 mM Tris-HCl pH 8.0, 50 mM NaCl, 0.2 mM EDTA, 0.1% NP40); anti-Myc antibody overnight at 4°C, protein-A sepharose, 5 washes; blot with anti-FLAG (anti-GFP for DLC2)

Binder | binding
GFP-tagged DLC2α (protein, UniProt Q9Y3M8-1 1-1113) MFSQVPRTPASGCYYLNSMTPEGQEMYLRFDQTTRRSPYRMSRILARHQLVTKIQQEIEAKEACDWLRAAGFPQYAQLYEDSQFPINIVAVKNDHDFLEKDLVEPLCRRLNTLNKCASMKLDVNFQRKKGDDSDEEDLCISNKWTFQRTSRRWSRVDDLYTLLPRGDRNGSPGGTGMRNTTSSESVLTDLSEPEVCSIHSESSGGSDSRSQPGQCCTDNPVMLDAPLVSSSLPQPPRDVLNHPFHPKNEKPTRARAKSFLKRMETLRGKGAHGRHKGSGRTGGLVISGPMLQQEPESFKAMQCIQIPNGDLQNSPPPACRKGLPCSGKSSGESSPSEHSSSGVSTPCLKERKCHEANKRGGMYLEDLDVLAGTALPDAGDQSRMHEFHSQENLVVHIPKDHKPGTFPKALSIESLSPTDSSNGVNWRTGSISLGREQVPGAREPRLMASCHRASRVSIYDNVPGSHLYASTGDLLDLEKDDLFPHLDDILQHVNGLQEVVDDWSKDVLPELQTHDTLVGEPGLSTFPSPNQITLDFEGNSVSEGRTTPSDVERDVTSLNESEPPGVRDRRDSGVGASLTRPNRRLRWNSFQLSHQPRPAPASPHISSQTASQLSLLQRFSLLRLTAIMEKHSMSNKHGWTWSVPKFMKRMKVPDYKDKAVFGVPLIVHVQRTGQPLPQSIQQALRYLRSNCLDQVGLFRKSGVKSRIHALRQMNENFPENVNYEDQSAYDVADMVKQFFRDLPEPLFTNKLSETFLHIYQYVSKEQRLQAVQAAILLLADENREVLQTLLCFLNDVVNLVEENQMTPMNLAVCLAPSLFHLNLLKKESSPRVIQKKYATGKPDQKDLNENLAAAQGLAHMIMECDRLFEVPHELVAQSRNSYVEAEIHVPTLEELGTQLEESGATFHTYLNHLIQGLQKEAKEKFKGWVTCSSTDNTDLAFKKVGDGNPLKLWKASVEVEAPPSVVLNRVLRERHLWDEDFVQWKVVETLDRQTEIYQYVLNSMAPHPSRDFVVLRTWKTDLPKGMCTLVSLSVEHEEAQLLGGVRAVVMDSQYLIEPCGSGKSRLTHICRIDLKGHSPEWYSKGFGHLCAAEVARIRNSFQPLIAEGPETKI | binds
GFP-tagged DLC2α R740E (protein, UniProt Q9Y3M8-1 1-1113) MFSQVPRTPASGCYYLNSMTPEGQEMYLRFDQTTRRSPYRMSRILARHQLVTKIQQEIEAKEACDWLRAAGFPQYAQLYEDSQFPINIVAVKNDHDFLEKDLVEPLCRRLNTLNKCASMKLDVNFQRKKGDDSDEEDLCISNKWTFQRTSRRWSRVDDLYTLLPRGDRNGSPGGTGMRNTTSSESVLTDLSEPEVCSIHSESSGGSDSRSQPGQCCTDNPVMLDAPLVSSSLPQPPRDVLNHPFHPKNEKPTRARAKSFLKRMETLRGKGAHGRHKGSGRTGGLVISGPMLQQEPESFKAMQCIQIPNGDLQNSPPPACRKGLPCSGKSSGESSPSEHSSSGVSTPCLKERKCHEANKRGGMYLEDLDVLAGTALPDAGDQSRMHEFHSQENLVVHIPKDHKPGTFPKALSIESLSPTDSSNGVNWRTGSISLGREQVPGAREPRLMASCHRASRVSIYDNVPGSHLYASTGDLLDLEKDDLFPHLDDILQHVNGLQEVVDDWSKDVLPELQTHDTLVGEPGLSTFPSPNQITLDFEGNSVSEGRTTPSDVERDVTSLNESEPPGVRDRRDSGVGASLTRPNRRLRWNSFQLSHQPRPAPASPHISSQTASQLSLLQRFSLLRLTAIMEKHSMSNKHGWTWSVPKFMKRMKVPDYKDKAVFGVPLIVHVQRTGQPLPQSIQQALRYLRSNCLDQVGLFRKSGVKSRIHALRQMNENFPENVNYEDQSAYDVADMVKQFFEDLPEPLFTNKLSETFLHIYQYVSKEQRLQAVQAAILLLADENREVLQTLLCFLNDVVNLVEENQMTPMNLAVCLAPSLFHLNLLKKESSPRVIQKKYATGKPDQKDLNENLAAAQGLAHMIMECDRLFEVPHELVAQSRNSYVEAEIHVPTLEELGTQLEESGATFHTYLNHLIQGLQKEAKEKFKGWVTCSSTDNTDLAFKKVGDGNPLKLWKASVEVEAPPSVVLNRVLRERHLWDEDFVQWKVVETLDRQTEIYQYVLNSMAPHPSRDFVVLRTWKTDLPKGMCTLVSLSVEHEEAQLLGGVRAVVMDSQYLIEPCGSGKSRLTHICRIDLKGHSPEWYSKGFGHLCAAEVARIRNSFQPLIAEGPETKI | binds
